Results are given in words; binding and its absence hold for the method and conditions named. In cells and extracts the contact can be indirect. Some binding calls cover weakened binding; strength is not graded here.

This assay concerns the target T1, IFNAR1, mouse, endogenous in heart tissue (mouse) (UniProt P33896).
T1 sequence (looked up): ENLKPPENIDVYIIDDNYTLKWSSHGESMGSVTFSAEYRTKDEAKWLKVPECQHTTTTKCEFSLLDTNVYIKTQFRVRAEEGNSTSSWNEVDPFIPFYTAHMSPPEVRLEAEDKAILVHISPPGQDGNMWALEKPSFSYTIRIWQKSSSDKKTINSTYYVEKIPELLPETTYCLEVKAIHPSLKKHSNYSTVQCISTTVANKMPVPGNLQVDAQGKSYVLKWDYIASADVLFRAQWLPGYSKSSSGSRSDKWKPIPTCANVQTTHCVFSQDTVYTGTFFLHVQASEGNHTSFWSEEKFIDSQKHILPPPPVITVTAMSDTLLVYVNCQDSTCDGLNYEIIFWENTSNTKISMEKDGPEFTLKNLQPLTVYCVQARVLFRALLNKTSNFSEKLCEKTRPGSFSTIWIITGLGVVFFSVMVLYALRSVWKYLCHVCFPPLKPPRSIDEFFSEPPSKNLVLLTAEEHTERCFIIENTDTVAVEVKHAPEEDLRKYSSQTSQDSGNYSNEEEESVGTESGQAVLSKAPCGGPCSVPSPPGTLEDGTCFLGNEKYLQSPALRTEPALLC
Kind of assay: TF co-immunoprecipitation from mouse heart lysates, immunoblot.

B1: TF, mouse, endogenous in heart tissue (receptor, UniProt P20352 29-294, looked up)
chain: AGIPEKAFNLTWISTDFKTILEWQPKPTNYTYTVQISDRSRNWKNKCFSTTDTECDLTDEIVKDVTWAYEAKVLSVPRRNSVHGDGDQLVIHGEEPPFTNAPKFLPYRDTNLGQPVIQQFEQDGRKLNVVVKDSLTLVRKNGTFLTLRQVFGKDLGYIITYRKGSSTGKKTNITNTNEFSIDVEEGVSYCFFVQAMIFSRKTNQNSPGSSTVCTEQWKSFLGETLIIVGAVVLLATIFIILLSISLCKRRKNRAGQKGKNTPSRLA
B1: the binding result is “binds”.

Source of the values: patent publication EP4545090A1 (Universität Leipzig, dated 2025).
